From PMC12396675
No constants are given. Whether binding was seen depends on the method and setting. In cells and extracts the contact can be indirect. Some results given as binding are weak or reduced against the parent protein; the word gives no strength.

Protein sequences, listed by entry. Tags and fused reporters are not part of them.
UniProt Q8R4B8: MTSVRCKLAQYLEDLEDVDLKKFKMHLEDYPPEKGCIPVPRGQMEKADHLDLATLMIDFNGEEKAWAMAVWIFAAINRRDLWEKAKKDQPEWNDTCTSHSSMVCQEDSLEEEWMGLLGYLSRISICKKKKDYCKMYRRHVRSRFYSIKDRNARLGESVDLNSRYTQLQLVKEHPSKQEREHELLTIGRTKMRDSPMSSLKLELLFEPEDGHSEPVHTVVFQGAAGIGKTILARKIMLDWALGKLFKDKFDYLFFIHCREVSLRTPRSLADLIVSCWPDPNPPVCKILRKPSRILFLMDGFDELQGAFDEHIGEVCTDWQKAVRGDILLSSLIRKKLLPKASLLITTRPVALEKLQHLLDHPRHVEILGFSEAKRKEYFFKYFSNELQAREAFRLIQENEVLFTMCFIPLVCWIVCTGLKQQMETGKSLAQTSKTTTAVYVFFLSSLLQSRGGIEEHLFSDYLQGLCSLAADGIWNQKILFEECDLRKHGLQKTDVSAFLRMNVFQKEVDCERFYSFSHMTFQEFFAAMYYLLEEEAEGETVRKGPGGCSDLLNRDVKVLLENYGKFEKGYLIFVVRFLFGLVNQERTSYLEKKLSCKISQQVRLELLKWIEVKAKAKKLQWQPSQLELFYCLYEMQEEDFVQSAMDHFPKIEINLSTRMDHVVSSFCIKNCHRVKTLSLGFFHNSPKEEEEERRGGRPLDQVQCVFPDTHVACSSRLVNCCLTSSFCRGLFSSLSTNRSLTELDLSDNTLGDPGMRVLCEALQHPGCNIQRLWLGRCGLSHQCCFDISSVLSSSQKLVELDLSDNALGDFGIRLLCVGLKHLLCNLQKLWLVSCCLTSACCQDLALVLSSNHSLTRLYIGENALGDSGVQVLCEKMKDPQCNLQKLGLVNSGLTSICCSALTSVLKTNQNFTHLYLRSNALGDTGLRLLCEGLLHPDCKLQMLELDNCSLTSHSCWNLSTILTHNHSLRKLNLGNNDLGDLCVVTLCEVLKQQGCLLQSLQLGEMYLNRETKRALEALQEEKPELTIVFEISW

Biological target: T1, receptor-interacting protein kinase 1 (mouse (endogenous in left ventricle)) (UniProt Q60855)
T1 sequence: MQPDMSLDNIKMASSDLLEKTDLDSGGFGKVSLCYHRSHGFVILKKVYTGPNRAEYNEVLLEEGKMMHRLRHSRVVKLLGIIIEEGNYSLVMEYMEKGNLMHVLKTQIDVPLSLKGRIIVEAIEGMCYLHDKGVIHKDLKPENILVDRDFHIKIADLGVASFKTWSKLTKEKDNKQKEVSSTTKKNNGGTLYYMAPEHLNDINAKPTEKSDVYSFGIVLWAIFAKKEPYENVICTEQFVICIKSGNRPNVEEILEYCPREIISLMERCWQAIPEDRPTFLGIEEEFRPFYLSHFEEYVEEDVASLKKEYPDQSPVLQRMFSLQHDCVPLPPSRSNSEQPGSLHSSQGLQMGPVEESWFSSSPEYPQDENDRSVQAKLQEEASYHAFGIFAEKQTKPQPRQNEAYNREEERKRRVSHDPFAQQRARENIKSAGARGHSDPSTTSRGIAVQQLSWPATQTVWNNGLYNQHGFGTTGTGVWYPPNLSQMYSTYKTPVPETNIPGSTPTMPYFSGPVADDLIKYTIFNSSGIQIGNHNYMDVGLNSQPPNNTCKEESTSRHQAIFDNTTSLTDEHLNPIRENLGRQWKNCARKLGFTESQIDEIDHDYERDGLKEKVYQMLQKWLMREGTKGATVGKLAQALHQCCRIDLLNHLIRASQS
Experiment: co-IP; mouse myocardial (left-ventricular) tissue lysed in RIPA buffer with protease and phosphatase inhibitors; 1 μg primary antibody (TGFBR1, TAK1 or RIPK1) or IgG, 4°C; protein A/G beads overnight; western blot; groups of mice: control, shTGFBR1 + control, HFpEF (HFD + L-NAME), shTGFBR1 + HFpEF; which antibody precipitated in which panel is not told

- binding: binds
Substance: NLRP3 (from UniProt Q8R4B8 1-1033)
